In the assay the target is T1, FhuCB subcomplex (wild type; membrane subunit FhuB and ATPase FhuC) (Escherichia coli) (UniProt P07821+P06972).
T1 sequence (chain, His-tag labeled with the red-tris-NTA 2nd generation dye (in the MST)) 1: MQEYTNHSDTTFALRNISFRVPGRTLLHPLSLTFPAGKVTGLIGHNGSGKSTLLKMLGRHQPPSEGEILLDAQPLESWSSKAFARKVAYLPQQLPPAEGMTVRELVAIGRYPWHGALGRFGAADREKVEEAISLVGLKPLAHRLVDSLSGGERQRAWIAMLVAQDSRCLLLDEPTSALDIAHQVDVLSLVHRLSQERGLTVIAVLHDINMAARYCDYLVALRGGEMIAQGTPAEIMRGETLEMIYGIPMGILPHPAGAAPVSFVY
T1 sequence (chain, His-tag labeled with the red-tris-NTA 2nd generation dye (in the MST)) 2: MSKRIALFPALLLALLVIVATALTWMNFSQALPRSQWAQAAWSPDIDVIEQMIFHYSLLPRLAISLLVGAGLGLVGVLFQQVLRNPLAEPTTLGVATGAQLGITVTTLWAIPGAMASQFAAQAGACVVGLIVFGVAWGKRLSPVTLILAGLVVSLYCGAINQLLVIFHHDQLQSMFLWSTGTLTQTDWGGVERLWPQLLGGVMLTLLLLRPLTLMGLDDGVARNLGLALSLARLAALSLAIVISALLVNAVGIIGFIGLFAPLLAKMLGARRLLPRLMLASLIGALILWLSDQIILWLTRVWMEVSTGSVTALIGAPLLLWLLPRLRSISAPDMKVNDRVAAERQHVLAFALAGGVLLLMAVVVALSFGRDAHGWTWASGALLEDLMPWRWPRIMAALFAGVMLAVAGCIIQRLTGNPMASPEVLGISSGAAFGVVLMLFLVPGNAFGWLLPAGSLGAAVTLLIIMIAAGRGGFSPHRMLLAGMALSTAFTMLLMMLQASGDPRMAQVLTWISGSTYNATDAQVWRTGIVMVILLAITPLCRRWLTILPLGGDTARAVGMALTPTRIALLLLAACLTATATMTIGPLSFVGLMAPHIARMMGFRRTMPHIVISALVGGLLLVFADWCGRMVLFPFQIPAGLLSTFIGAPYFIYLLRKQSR
As to the kind of experiment: MST.

Results are given in words; binding and its absence hold for the method and conditions named. Some binding calls cover weakened binding; strength is not graded here.

B1: FhuD (separately expressed periplasmic substrate-binding protein) (protein, UniProt P07822 31-296)
chain: AAIDPNRIVALEWLPVELLLALGIVPYGVADTINYRLWVSEPPLPDSVIDVGLRTEPNLELLTEMKPSFMVWSAGYGPSPEMLARIAPGRGFNFSDGKQPLAMARKSLTEMADLLNLQSAAETHLAQYEDFIRSMKPRFVKRGARPLLLTTLIDPRHMLVFGPNSLFQEILDEYGIPNAWQGETNFWGSTAVSIDRLAAYKDVDVLCFDHDNSKDMDALMATPLWQAMPFVRAGRFQRVPAVWFYGATLSAMHFVRVLDNAIGGKA
As to B1, the binding entry is on record as “binds”.
